According to the supplement of paper PMC10849652:
Some of the results follow.

Amino acid sequences for entries named in this document (tags omitted). A change or cut given only in a name is not applied to a line headed by its entry.
UniProt Q9BZH6: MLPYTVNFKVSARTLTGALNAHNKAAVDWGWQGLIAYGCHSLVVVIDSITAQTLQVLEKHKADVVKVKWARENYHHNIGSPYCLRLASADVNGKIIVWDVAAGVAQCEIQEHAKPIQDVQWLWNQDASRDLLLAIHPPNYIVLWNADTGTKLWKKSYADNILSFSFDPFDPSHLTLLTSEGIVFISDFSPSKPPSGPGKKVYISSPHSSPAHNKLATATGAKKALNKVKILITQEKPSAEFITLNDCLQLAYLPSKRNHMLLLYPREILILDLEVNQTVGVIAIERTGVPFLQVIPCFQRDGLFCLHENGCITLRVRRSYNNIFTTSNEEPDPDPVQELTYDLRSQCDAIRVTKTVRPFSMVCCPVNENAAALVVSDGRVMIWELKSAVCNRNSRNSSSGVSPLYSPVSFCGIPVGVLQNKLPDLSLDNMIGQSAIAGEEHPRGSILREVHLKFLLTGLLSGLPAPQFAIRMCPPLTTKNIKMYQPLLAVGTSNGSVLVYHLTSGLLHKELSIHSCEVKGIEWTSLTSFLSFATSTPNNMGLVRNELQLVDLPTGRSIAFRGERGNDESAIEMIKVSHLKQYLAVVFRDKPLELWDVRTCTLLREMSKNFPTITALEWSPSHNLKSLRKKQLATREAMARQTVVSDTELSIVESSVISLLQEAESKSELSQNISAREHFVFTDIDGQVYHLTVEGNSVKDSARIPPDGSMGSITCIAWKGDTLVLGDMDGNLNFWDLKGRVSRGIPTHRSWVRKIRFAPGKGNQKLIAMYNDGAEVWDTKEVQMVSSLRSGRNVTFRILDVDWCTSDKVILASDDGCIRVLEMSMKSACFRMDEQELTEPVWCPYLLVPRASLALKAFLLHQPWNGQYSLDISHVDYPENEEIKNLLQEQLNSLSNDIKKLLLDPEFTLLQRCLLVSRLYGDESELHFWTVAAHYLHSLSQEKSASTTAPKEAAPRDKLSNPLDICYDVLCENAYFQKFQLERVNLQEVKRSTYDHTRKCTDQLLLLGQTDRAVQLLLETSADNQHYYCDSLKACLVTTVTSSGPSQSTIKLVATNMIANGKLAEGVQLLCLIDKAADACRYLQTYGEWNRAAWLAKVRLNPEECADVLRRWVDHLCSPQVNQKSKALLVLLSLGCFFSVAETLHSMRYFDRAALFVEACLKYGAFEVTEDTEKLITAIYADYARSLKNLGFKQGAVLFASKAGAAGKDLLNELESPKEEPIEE
UniProt Q6VEQ5: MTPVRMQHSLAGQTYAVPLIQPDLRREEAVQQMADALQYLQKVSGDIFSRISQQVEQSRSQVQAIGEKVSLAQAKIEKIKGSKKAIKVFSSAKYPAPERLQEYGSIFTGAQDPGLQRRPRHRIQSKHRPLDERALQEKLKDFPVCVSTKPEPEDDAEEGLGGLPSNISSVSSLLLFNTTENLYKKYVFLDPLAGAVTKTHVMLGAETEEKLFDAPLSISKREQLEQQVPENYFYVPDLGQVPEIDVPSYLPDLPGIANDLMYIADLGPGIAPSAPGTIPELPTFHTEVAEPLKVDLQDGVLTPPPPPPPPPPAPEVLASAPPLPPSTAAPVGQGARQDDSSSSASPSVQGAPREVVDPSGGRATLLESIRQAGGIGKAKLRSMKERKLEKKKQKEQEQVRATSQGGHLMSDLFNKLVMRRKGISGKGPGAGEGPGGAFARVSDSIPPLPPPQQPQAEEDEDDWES
UniProt P98170, whole entry, looked up: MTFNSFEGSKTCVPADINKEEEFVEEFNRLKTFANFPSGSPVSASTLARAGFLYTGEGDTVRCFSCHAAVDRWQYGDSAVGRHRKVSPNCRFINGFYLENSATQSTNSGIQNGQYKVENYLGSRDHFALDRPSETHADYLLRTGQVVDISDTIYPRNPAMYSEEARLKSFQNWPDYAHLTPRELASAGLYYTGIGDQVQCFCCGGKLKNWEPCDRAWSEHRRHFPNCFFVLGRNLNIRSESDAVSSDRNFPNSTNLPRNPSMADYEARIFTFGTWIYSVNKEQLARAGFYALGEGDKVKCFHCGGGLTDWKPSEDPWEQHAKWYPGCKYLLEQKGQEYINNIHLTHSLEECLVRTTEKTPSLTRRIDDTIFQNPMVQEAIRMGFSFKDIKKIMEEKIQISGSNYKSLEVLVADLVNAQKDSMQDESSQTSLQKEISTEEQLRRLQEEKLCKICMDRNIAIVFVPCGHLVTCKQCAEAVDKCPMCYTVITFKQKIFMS
UniProt Q8TAF3: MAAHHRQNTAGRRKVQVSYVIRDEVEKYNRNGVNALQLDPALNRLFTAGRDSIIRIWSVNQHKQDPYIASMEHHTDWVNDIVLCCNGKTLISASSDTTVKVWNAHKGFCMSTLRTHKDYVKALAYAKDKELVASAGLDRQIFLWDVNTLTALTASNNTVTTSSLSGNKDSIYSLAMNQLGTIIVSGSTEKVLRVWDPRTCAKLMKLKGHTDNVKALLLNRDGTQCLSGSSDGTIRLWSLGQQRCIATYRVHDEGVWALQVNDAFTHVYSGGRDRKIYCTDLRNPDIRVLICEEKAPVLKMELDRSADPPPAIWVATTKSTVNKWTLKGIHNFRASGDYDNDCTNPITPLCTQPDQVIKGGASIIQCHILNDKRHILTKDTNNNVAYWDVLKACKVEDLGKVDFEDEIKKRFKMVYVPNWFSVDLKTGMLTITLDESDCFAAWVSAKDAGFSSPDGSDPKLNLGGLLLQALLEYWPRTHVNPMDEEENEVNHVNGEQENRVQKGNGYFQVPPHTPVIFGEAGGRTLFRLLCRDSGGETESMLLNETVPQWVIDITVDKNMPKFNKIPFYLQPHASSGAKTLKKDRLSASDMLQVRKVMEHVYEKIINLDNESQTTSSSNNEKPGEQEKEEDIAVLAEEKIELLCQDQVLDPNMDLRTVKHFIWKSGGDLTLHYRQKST
UniProt Q9NW82: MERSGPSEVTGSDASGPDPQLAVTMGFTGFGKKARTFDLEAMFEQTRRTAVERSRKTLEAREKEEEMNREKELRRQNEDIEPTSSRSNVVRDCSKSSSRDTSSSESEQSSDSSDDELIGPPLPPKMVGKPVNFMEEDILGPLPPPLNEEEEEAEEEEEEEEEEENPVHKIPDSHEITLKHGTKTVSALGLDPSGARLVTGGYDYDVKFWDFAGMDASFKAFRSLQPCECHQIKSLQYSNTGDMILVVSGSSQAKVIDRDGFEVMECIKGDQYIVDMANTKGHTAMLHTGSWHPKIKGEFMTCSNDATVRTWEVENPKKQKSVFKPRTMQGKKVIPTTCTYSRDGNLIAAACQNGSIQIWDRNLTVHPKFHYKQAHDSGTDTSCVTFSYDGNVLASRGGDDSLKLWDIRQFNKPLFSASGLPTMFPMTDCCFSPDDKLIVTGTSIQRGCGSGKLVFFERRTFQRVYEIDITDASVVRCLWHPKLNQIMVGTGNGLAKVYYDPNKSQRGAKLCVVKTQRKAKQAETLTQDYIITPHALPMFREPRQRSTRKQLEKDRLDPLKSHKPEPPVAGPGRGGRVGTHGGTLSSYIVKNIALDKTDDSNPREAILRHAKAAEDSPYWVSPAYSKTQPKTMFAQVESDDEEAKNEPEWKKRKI
UniProt P23381: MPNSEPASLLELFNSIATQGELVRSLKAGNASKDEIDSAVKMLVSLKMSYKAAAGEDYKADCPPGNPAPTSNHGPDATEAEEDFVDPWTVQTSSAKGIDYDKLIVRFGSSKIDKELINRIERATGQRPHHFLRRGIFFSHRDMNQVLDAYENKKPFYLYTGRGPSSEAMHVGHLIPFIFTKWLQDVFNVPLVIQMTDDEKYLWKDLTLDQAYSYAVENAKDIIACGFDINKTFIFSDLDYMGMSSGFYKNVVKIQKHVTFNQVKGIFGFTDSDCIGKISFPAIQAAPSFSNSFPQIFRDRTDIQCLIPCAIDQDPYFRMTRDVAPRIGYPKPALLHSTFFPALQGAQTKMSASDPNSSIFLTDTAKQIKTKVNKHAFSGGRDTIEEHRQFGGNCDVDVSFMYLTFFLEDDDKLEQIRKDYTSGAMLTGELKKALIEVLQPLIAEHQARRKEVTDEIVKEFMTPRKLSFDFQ
UniProt Q8NEZ2: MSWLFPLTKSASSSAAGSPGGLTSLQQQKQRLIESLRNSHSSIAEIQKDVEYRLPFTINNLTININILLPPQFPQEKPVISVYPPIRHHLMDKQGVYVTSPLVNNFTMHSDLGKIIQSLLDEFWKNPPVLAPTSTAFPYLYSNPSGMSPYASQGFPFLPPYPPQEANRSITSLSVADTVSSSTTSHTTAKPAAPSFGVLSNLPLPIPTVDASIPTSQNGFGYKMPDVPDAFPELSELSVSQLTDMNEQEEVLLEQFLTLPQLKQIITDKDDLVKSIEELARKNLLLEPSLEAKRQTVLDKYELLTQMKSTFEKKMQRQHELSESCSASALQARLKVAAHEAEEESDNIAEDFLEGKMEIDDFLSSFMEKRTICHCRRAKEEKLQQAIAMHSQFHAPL
UniProt Q96J92: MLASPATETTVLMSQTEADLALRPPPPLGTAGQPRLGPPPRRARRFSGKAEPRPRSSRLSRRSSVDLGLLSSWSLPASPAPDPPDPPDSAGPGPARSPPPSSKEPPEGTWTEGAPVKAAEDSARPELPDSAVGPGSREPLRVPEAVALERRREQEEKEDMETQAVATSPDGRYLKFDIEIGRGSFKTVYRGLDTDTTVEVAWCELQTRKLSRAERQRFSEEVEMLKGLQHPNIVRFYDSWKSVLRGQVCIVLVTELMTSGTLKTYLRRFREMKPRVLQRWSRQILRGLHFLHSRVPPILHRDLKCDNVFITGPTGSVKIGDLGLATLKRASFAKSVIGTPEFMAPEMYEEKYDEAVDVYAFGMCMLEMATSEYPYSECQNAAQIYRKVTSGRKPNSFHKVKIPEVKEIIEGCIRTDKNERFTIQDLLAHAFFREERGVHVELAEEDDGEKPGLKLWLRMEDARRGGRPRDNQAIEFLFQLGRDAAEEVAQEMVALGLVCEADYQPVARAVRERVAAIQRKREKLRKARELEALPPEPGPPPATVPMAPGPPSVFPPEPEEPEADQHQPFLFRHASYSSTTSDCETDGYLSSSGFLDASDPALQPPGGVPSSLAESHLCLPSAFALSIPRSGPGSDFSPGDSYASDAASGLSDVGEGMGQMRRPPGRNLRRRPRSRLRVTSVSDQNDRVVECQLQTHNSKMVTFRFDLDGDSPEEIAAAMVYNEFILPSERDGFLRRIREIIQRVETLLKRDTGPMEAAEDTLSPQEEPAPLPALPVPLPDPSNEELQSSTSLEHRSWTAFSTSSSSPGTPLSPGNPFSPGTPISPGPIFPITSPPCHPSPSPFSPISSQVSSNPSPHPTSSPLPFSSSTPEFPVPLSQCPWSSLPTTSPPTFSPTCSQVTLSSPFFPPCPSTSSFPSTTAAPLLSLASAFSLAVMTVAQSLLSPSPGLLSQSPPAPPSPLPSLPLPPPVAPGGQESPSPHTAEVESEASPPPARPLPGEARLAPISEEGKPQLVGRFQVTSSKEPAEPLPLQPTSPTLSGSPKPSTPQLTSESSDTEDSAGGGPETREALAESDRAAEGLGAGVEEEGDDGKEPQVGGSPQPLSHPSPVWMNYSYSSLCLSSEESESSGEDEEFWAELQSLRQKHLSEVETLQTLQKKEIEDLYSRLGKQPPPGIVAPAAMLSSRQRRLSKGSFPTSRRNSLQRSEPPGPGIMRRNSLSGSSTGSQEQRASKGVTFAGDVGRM
UniProt Q8N9V3: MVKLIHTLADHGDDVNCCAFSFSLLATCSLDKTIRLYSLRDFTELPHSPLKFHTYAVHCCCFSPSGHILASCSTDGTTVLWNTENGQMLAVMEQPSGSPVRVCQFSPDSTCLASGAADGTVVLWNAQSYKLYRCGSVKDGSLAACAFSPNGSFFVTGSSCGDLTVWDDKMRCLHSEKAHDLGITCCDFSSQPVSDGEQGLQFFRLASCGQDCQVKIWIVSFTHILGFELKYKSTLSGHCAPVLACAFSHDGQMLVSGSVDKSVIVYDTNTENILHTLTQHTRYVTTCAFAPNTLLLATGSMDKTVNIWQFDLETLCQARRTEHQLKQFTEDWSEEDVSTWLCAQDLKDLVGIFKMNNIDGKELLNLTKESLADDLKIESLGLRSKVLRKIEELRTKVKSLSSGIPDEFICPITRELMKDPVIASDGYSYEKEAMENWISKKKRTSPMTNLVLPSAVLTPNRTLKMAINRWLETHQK
UniProt Q15007: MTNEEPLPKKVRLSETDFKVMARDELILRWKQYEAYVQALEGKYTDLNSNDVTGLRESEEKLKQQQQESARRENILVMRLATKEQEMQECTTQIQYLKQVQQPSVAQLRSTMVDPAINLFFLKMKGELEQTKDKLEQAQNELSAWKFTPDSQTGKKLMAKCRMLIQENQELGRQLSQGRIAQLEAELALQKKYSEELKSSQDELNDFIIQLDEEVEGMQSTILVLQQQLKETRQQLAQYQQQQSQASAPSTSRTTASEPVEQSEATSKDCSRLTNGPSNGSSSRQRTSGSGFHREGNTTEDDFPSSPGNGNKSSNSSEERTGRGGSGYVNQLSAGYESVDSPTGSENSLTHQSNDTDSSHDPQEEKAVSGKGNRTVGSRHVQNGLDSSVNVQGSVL

How the values were obtained:
Experiment in all cases: log2 fold change, soluble protein after heating vs DMSO (PISA); higher = thermal stabilisation; K562 lysate, 10 uM; active = over 0.2 and 3.5 SD of the protein, either way, in both replicates (recomputed)
[1] = compound: CN1CC[C@H](c2c(O)cc(O)c3c(=O)cc(-c4ccccc4Cl)oc23)[C@H](O)C1 [alvocidib]
How it was run: (§1)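 Quantification was by TMTpro 16plex LC-MS/MS with equalised channel sums, applied to the supernatant after 21,000xg for 90 min. Samples were crude K562 extract at 1 mg/mL protein in PBS pH 7.4 with 1 mM MgCl2, treated with 10 μM compound for 30 min, heated for 3 min across 48°C-58°C, pooled and brought to 0.5% NP-40 at 4°C. Values are log-two fold changes in thermal stability relative to solvent controls, from duplicates.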

[2] = compound: CN1CCc2c(c3ccccc3n2Cc2ccc(C(=O)NO)cc2)C1 [Tubastatin A]
How it was run: as §1

[3] = compound: CNC(=O)C1=CC=CC=C1NC2=NC(=NC=C2Cl)NC3=C(C=C(C=C3)N4CCOCC4)OC
How it was run: as §1

[4] = compound: CNC(=O)c1ccc(Nc2ncc(C(F)(F)F)c(NCc3nccnc3N(C)S(C)(=O)=O)n2)cc1 [defactinib]
How it was run: as §1

[5] = compound: CNc1nc(-c2ccc3c(N)n[nH]c3c2)cc(N2C[C@@H](C(=O)NC3CCCCC3)CC[C@H]2C)n1
How it was run: as §1

[6] = compound: COC(=O)N[C@@H](C)CNc1nccc(-c2cn(C(C)C)nc2-c2cc(Cl)cc(NS(C)(=O)=O)c2F)n1 [encorafenib]
How it was run: as §1

[7] = compound: COC(=O)[C@H](CCSC)NC(=O)C1=C(C=C(C=C1)NC[C@H](CS)N)C2=CC=CC=C2
How it was run: as §1

[8] = compound: COc1cc(Nc2ncc3c(n2)-c2ccc(Cl)cc2C(c2c(F)cccc2OC)=NC3)ccc1C(=O)O [alisertib]
How it was run: as §1

[9] = compound: COc1cc2nc(-c3cc(F)ccc3O)nc(N[C@@H]3CNC[C@H]3C(C)(C)O)c2cc1OC
How it was run: as §1

[10] = compound: COc1cc2ncnc(Nc3ccc(F)c(Cl)c3)c2cc1OCCCN1CCOCC1 [gefitinib]
How it was run: as §1

| Target | log2 fold change [1] | log2 fold change [2] | log2 fold change [3] | log2 fold change [4] | log2 fold change [5] | log2 fold change [6] | log2 fold change [7] | log2 fold change [8] | log2 fold change [9] | log2 fold change [10] |
| --- | --- | --- | --- | --- | --- | --- | --- | --- | --- | --- |
| WDR11 (UniProt Q9BZH6) | inactive: -0.1 | inactive: 0.018 | inactive: -0.018 | inactive: -0.13 | inactive: 0.002 | inactive: 0.047 | inactive: 0.012 | inactive: 0.079 | inactive: 0.012 | inactive: 0.109 |
| WIPF3 (UniProt A6NGB9) | inactive: -0.067 | inactive: 0.034 | inactive: 0.024 | inactive: 0.054 | inactive: 0.075 | inactive: -0.017 | inactive: -0.064 | inactive: -0.003 | inactive: 0.017 | inactive: 0.028 |
| WASHC2A (UniProt Q641Q2) | inactive: -0.029 | inactive: 0.007 | inactive: -0.007 | inactive: 0.019 | inactive: 0.023 | inactive: 0.031 | inactive: -0.041 | inactive: 0.018 | inactive: 0.001 | inactive: -0.016 |
| VPS39 (UniProt Q96JC1) | active: 0.268 | inactive: -0.06 | inactive: 0.036 | inactive: 0.011 | inactive: 0.007 | inactive: 0.043 | inactive: -0.218 | inactive: 0.041 | inactive: 0.026 | inactive: -0.041 |
| VPS4A (UniProt Q9UN37) | inactive: -0.004 | inactive: -0.16 | inactive: 0.025 | inactive: 0.01 | inactive: -0.1 | inactive: -0.004 | inactive: 0.138 | inactive: 0 | inactive: -0.004 | inactive: -0.025 |
| VWA5A (UniProt O00534) | inactive: -0.051 | inactive: -0.022 | inactive: 0.015 | inactive: -0.062 | inactive: 0.02 | inactive: -0.015 | inactive: -0.032 | inactive: -0.007 | inactive: 0.006 | inactive: -0.028 |
| WASH2P (UniProt Q6VEQ5) | inactive: 0.036 | inactive: 0.01 | inactive: -0.014 | inactive: 0.072 | inactive: -0.012 | inactive: 0.023 | inactive: -0.045 | inactive: -0.019 | inactive: -0.007 | inactive: 0.044 |
| VPS13D (UniProt Q5THJ4) | inactive: 0.02 | inactive: -0.011 | inactive: 0.108 | inactive: -0.009 | inactive: 0.041 | inactive: 0.09 | inactive: -0.047 | inactive: -0.006 | inactive: 0.113 | inactive: 0.079 |
| WIPF1 isoform 3 (UniProt O43516) | inactive: 0.011 | inactive: 0.009 | inactive: -0.039 | inactive: -0.053 | inactive: -0.164 | inactive: 0.007 | inactive: -0.03 | inactive: -0.082 | inactive: -0.041 | inactive: 0.003 |
| XIAP (UniProt P98170) | inactive: -0.028 | inactive: 0.013 | inactive: -0.019 | inactive: -0.045 | inactive: 0.016 | inactive: -0.003 | inactive: 0.001 | inactive: -0.05 | inactive: -0.007 | inactive: -0.021 |
| WDTC1 (UniProt Q8N5D0) | inactive: -0.03 | inactive: 0.018 | inactive: 0.006 | inactive: 0.029 | inactive: -0.082 | inactive: 0.05 | inactive: 0.039 | inactive: -0.007 | inactive: -0.009 | inactive: -0.077 |
| WAPL isoform 3 (UniProt Q7Z5K2) | inactive: -0.032 | inactive: -0.058 | inactive: -0.009 | inactive: 0.025 | inactive: 0.015 | inactive: 0.024 | inactive: 0.002 | inactive: -0.006 | inactive: 0.014 | inactive: -0.004 |
| WDR73 (UniProt Q6P4I2) | inactive: -0.018 | inactive: 0.003 | inactive: 0.043 | inactive: 0.013 | inactive: -0.008 | inactive: 0.064 | inactive: -0.105 | inactive: 0.063 | inactive: 0.042 | inactive: 0.007 |
| WDR36 (UniProt Q8NI36) | inactive: 0.021 | inactive: -0.102 | inactive: 0.028 | inactive: -0.018 | inactive: -0.062 | inactive: -0.025 | inactive: 0.134 | inactive: 0.008 | inactive: 0.004 | inactive: -0.03 |
| WDR48 (UniProt Q8TAF3) | inactive: -0.021 | inactive: 0.031 | inactive: -0.012 | inactive: -0.031 | inactive: -0.015 | inactive: 0.015 | inactive: -0.057 | inactive: -0.013 | inactive: -0.008 | inactive: 0.021 |
| WDR70 (UniProt Q9NW82) | inactive: 0.013 | inactive: -0.033 | inactive: -0.051 | inactive: -0.023 | inactive: -0.016 | inactive: 0.004 | inactive: -0.084 | inactive: 0.003 | inactive: -0.013 | inactive: 0.038 |
| WASHC5 (UniProt Q12768) | inactive: -0.041 | inactive: -0.016 | inactive: 0.017 | inactive: 0.03 | inactive: 0.006 | inactive: 0.009 | inactive: 0.069 | inactive: 0.042 | inactive: -0.005 | inactive: 0.003 |
| VTN (UniProt P04004) | inactive: -0.112 | inactive: -0.012 | inactive: -0.095 | inactive: 0.104 | inactive: -0.061 | inactive: 0.089 | inactive: -0.074 | inactive: -0.041 | inactive: 0.014 | inactive: 0.009 |
| WARS (UniProt P23381) | inactive: 0.074 | inactive: 0.046 | inactive: 0.03 | inactive: -0.005 | inactive: 0.053 | inactive: -0.029 | inactive: -0.033 | inactive: -0.024 | inactive: -0.01 | inactive: -0.099 |
| WDR92 (UniProt Q96MX6) | inactive: 0.027 | inactive: 0.015 | inactive: -0.005 | inactive: -0.022 | inactive: -0.006 | inactive: 0.007 | inactive: 0.022 | inactive: 0.051 | inactive: -0.009 | inactive: -0.014 |
| WIZ isoform 3 (UniProt O95785) | inactive: -0.052 | inactive: 0.005 | inactive: 0.07 | inactive: 0.001 | inactive: 0.023 | inactive: 0.053 | inactive: -0.049 | inactive: -0.002 | inactive: 0.008 | inactive: -0.038 |
| VPS37A (UniProt Q8NEZ2) | inactive: 0.028 | inactive: -0.043 | inactive: 0.002 | inactive: 0.008 | inactive: -0.057 | inactive: 0.017 | inactive: -0.017 | inactive: -0.04 | inactive: 0.016 | inactive: 0.002 |
| VPS25 (UniProt Q9BRG1) | inactive: 0.068 | inactive: 0.015 | inactive: 0.018 | inactive: 0.047 | inactive: 0.008 | inactive: -0.005 | inactive: -0.007 | inactive: 0.044 | inactive: -0.015 | inactive: -0.026 |
| WNK4 (UniProt Q96J92) | inactive: 0.122 | inactive: 0.076 | inactive: 0.119 | inactive: 0.039 | inactive: -0.049 | inactive: 0.033 | inactive: 0.063 | inactive: -0.044 | inactive: 0.045 | inactive: 0.005 |
| WDR62 isoform 4 (UniProt O43379) | inactive: 0.018 | inactive: -0.132 | inactive: 0.012 | inactive: -0.007 | inactive: 0.048 | inactive: 0.054 | inactive: -0.01 | inactive: 0.005 | inactive: 0.052 | inactive: 0.013 |
| VMP1 (UniProt Q96GC9) | inactive: -0.143 | inactive: 0.017 | inactive: 0.005 | inactive: 0.029 | inactive: -0.069 | inactive: 0.074 | inactive: -0.097 | inactive: -0.01 | inactive: 0.031 | inactive: -0.003 |
| WDSUB1 (UniProt Q8N9V3) | inactive: -0.015 | inactive: 0.036 | inactive: 0.013 | inactive: -0.042 | inactive: 0.015 | inactive: 0.015 | inactive: -0.044 | inactive: 0.029 | inactive: 0.01 | inactive: 0.01 |
| WWC2 isoform 6 (UniProt Q6AWC2) | inactive: -0.052 | inactive: -0.072 | inactive: 0.061 | inactive: 0.004 | inactive: -0.01 | inactive: -0.027 | inactive: 0.076 | inactive: -0.045 | inactive: -0.074 | inactive: 0.025 |
| WTAP (UniProt Q15007) | inactive: 0.01 | inactive: -0.076 | inactive: 0.058 | inactive: -0.004 | inactive: 0.065 | inactive: 0.025 | inactive: -0.014 | inactive: -0.033 | inactive: 0.04 | inactive: -0.037 |

Quoted from the listing.
In log2 fold change [5], WDR70 (UniProt Q9NW82) shows inactive: -0.016
In log2 fold change [8], XIAP (UniProt P98170) shows inactive: -0.05

Reprinted at random: two records from the list, in no set order.

| Target | log2 fold change [1] | log2 fold change [2] | log2 fold change [3] | log2 fold change [4] | log2 fold change [5] | log2 fold change [6] | log2 fold change [7] | log2 fold change [8] | log2 fold change [9] | log2 fold change [10] |
| --- | --- | --- | --- | --- | --- | --- | --- | --- | --- | --- |
| WASH2P (UniProt Q6VEQ5) | inactive: 0.036 | inactive: 0.01 | inactive: -0.014 | inactive: 0.072 | inactive: -0.012 | inactive: 0.023 | inactive: -0.045 | inactive: -0.019 | inactive: -0.007 | inactive: 0.044 |
| WARS (UniProt P23381) | inactive: 0.074 | inactive: 0.046 | inactive: 0.03 | inactive: -0.005 | inactive: 0.053 | inactive: -0.029 | inactive: -0.033 | inactive: -0.024 | inactive: -0.01 | inactive: -0.099 |
